This is an account of results in article PMC6406377.

Chains of the proteins cited; added tags and fusions are not shown.
UniProt P10242: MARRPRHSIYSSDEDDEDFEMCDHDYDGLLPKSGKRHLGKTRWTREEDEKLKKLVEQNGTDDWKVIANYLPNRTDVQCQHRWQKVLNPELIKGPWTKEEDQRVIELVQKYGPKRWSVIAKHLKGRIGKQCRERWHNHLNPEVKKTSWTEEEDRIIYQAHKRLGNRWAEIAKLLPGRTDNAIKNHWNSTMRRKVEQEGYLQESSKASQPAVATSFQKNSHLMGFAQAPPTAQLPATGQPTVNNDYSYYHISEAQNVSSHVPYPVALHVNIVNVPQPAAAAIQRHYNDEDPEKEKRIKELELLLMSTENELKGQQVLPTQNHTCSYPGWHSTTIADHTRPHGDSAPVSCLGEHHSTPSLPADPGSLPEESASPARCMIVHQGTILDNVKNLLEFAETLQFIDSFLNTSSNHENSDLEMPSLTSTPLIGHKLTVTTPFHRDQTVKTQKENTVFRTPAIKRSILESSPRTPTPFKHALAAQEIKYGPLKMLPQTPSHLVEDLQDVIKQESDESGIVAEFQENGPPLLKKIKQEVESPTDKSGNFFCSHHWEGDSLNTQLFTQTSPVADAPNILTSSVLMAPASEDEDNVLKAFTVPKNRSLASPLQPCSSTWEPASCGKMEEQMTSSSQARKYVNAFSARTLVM

Results are given in words; binding and its absence hold for the method and conditions named. In cells and extracts the contact can be indirect. Some results given as binding are weak or reduced against the parent protein; the word gives no strength.

The experiment has as its target c-MYB (Avian myeloblastosis viral oncogene homolog) (human (endogenous in 786-O and A498)) (UniProt P10242). The experiment in a line: co-IP; 1 mg of cell extracts from 786-O and A498 incubated overnight with anti-c-MYB or normal IgG on protein A Sepharose; washed with PBS-BSA and IGEPAL 0.2%; western blot with c-MYB and MYBBP1A antibodies. Background: A western blot detects proteins with antibodies after separation by electrophoresis.

B1: MYB binding protein 1A (MYBBP1A) (protein, UniProt Q9BQG0 1-1328)
chain: MESRDPAQPMSPGEATQSGARPADRYGLLKHSREFLDFFWDIAKPEQETRLAATEKLLEYLRGRPKGSEMKYALKRLITGLGVGRETARPCYSLALAQLLQSFEDLPLCSILQQIQEKYDLHQVKKAMLRPALFANLFGVLALFQSGRLVKDQEALMKSVKLLQALAQYQNHLQEQPRKALVDILSEVSKATLQEILPEVLKADLNIILSSPEQLELFLLAQQKVPSKLKKLVGSVNLFSDENVPRLVNVLKMAASSVKKDRKLPAIALDLLRLALKEDKFPRFWKEVVEQGLLKMQFWPASYLCFRLLGAALPLLTKEQLHLVMQGDVIRHYGEHVCTAKLPKQFKFAPEMDDYVGTFLEGCQDDPERQLAVLVAFSSVTNQGLPVTPTFWRVVRFLSPPALQGYVAWLRAMFLQPDLDSLVDFSTNNQKKAQDSSLHMPERAVFRLRKWIIFRLVSIVDSLHLEMEEALTEQVARFCLFHSFFVTKKPTSQIPETKHPFSFPLENQAREAVSSAFFSLLQTLSTQFKQAPGQTQGGQPWTYHLVQFADLLLNHSHNVTTVTPFTAQQRQAWDRMLQTLKELEAHSAEARAAAFQHLLLLVGIHLLKSPAESCDLLGDIQTCIRKSLGEKPRRSRTKTIDPQEPPWVEVLVEILLALLAQPSHLMRQVARSVFGHICSHLTPRALQLILDVLNPETSEDENDRVVVTDDSDERRLKGAEDKSEEGEDNRSSESEEESEGEESEEEERDGDVDQGFREQLMTVLQAGKALGGEDSENEEELGDEAMMALDQSLASLFAEQKLRIQARRDEKNKLQKEKALRRDFQIRVLDLVEVLVTKQPENALVLELLEPLLSIIRRSLRSSSSKQEQDLLHKTARIFTHHLCRARRYCHDLGERAGALHAQVERLVQQAGRQPDSPTALYHFNASLYLLRVLKGNTAEGCVHETQEKQKAGTDPSHMPTGPQAASCLDLNLVTRVYSTALSSFLTKRNSPLTVPMFLSLFSRHPVLCQSLLPILVQHITGPVRPRHQACLLLQKTLSMREVRSCFEDPEWKQLMGQVLAKVTENLRVLGEAQTKAQHQQALSSLELLNVLFRTCKHEKLTLDLTVLLGVLQGQQQSLQQGAHSTGSSRLHDLYWQAMKTLGVQRPKLEKKDAKEIPSATQSPISKKRKKKGFLPETKKRKKRKSEDGTPAEDGTPAATGGSQPPSMGRKKRNRTKAKVPAQANGTPTTKSPAPGAPTRSPSTPAKSPKLQKKNQKPSQVNGAPGSPTEPAGQKQHQKALPKKGVLGKSPLSALARKKARLSLVIRSPSLLQSGAKKKAQVRKAGKP
Turning to B1, the binding result was “binds”.
